According to paper PMC5996148:
Values joined by “and” are separate entries in the source; they are usually repeats but may differ in a detail not shown here. Identical values can stand only once. This is one part of the list. For some assays here: The source does not settle which construct or isoform was used.

Key:
Assay in all cases: protein microarray (ProtoArray v5.0), streptavidin-Alexa Fluor 647
Conditions in all cases: 3'-biotin; 20 mM Tris (pH 7.5), 5 mM MgCl2, 100 mM KCl, 0.1% Tween-20, A/T-rich and random oligonucleotide blockers; temperature not stated; high values mean tight binding
UBE2F (human) = system: UBE2F (human)
UBE2G2 (human) = system: UBE2G2 (human)
UBE2H (human) = system: UBE2H (human)
UBE2L6 (human) = system: UBE2L6 (human)
UBE2O (human) = system: UBE2O (human)
UBE2R2 (human) = system: UBE2R2 (human)
UBE2T (human) = system: UBE2T (human)
UBE2Z (human) = system: UBE2Z (human)
UBE3C (human) = system: UBE3C (human)
UBIAD1 (human) = system: UBIAD1 (human)
UBL3 (human) = system: UBL3 (human)
UBOX5 (human) = system: UBOX5 (human)
UBQLN1 (human) = system: UBQLN1 (human)
UBQLN2 (human) = system: UBQLN2 (human)
UBR2 (human) = system: UBR2 (human)
UBTD2 (human) = system: UBTD2 (human)
[1] = system: UBX domain-containing protein 7 (human)
UBXD1 (human) = system: UBXD1 (human)
UBXD3 = biological target: T1, UBXD3 (UniProt Q96LJ8)
T1 sequence: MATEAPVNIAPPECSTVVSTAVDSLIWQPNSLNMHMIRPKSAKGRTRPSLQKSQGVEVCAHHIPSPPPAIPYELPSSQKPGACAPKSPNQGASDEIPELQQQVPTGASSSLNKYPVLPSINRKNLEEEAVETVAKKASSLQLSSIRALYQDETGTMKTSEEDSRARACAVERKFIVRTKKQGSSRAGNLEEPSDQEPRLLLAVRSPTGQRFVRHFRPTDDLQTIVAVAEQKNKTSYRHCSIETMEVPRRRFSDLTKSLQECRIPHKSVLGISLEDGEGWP

UCHL1 (human) = system: UCHL1 (human)

“GGGAGGCTGAGGCAGG [G4-1 biotinylated (PQS2)]” was tested, and the binding signal (UBE2F (human)) was -0.309 z-score, the binding signal (UBE2G2 (human)) was -0.297 z-score and the binding signal (UBE2H (human)) was -0.334 z-score. For the same sequence, the binding signal (UBE2L6 (human)) was -0.35 z-score and -0.283 z-score, the binding signal (UBE2O (human)) was -0.331 z-score and the binding signal (UBE2R2 (human)) was -0.252 z-score. The binding signal (UBE2T (human)) was -0.316 z-score, the binding signal (UBE2Z (human)) was -0.33 z-score and the binding signal (UBE3C (human)) was -0.344 z-score. It also gave a binding signal (UBIAD1 (human)) of -0.304 z-score, a binding signal (UBL3 (human)) of -0.236 z-score and a binding signal (UBOX5 (human)) of -0.323 z-score. The binding signal (UBQLN1 (human)) was -0.373 z-score, the binding signal (UBQLN2 (human)) was -0.358 z-score and the binding signal (UBR2 (human)) was -0.315 z-score. The binding signal (UBTD2 (human)) was -0.335 z-score, the binding signal [1] was -0.312 z-score and the binding signal (UBXD1 (human)) was -0.301 z-score. The binding signal (UBXD3) was 3.52 z-score and the binding signal (UCHL1 (human)) was -0.353 z-score.
